# Assay: PET with DDE in inflamed joints (rheumatoid arthritis patients)
# Details: patients with rheumatoid arthritis given the tracer
structure (smiles),measurement,value
"C#CCN([11CH3])[C@@H](C)Cc1ccccc1 [DDE, D-[methyl-^11C]-deprenyl]",radioactivity concentration in synovial fluid,low radioactivity
